Experimental data: PubChem BioAssay AID504804 (Drosophila RNAi Screening Center, 2011)
The deposit covers about 19,000 reagents; shown is a random part of those with a known target gene and a result. Over the whole deposit, 47 (0.25%) got an active call. 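Signals are raw, not normalised; exact z-scores behind calls not deposited; actives needed confirmation, so some wells reaching 2 SD are inactive.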 Names joined by + are all predicted targets of the reagent.

- Assay: 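Fly genes whose loss lessens doxorubicin-driven cell death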 (primary screen)
- System: Drosophila Kc cells
- Reagent: long dsRNA against Drosophila genes, 0.5 µg dsRNA per well
- Time to read-out: 96 h (48 h knock-down, then 48 h drug)
- Conditions: doxorubicin 5 µg/ml for 48 h, added 48 h after dsRNA
- Measurement: 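Luminescent ATP counts per replicate, not normalised, reflecting viable cells after 48 h dsRNA knock-down followed by 48 h of 5 µg/ml doxorubicin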
- Direction: raw ATP luminescence: higher = more viable cells, protection from doxorubicin
- Call rule: 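Active when both duplicate wells lie at least 2 SD above the plate mean and protection is confirmed by rescreening and independent dsRNAs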

predicted target	amplicon	SD above plate mean	raw ATP luminescence, replicate 1	raw ATP luminescence, replicate 2	outcome
Mal-B1	DRSC02416		55907	56527	inactive
CG32450	DRSC11546		50750	43810	inactive
Tsp42Eg	DRSC06112		64297	62820	inactive
Cpr65Aw	DRSC08794		1.29e5	99483	inactive
chrb	DRSC11335		28523	37557	inactive
phr6-4	DRSC03589		72083	69360	inactive
mthl2	DRSC10287		75797	76167	inactive
Zyx	DRSC17186		1.66e5	1.72e5	inactive
Lsm10	DRSC06250		36790	73860	inactive
Nse1	DRSC02147		1.05e5	90427	inactive
B-H2	DRSC19335		47360	39760	inactive
betaNACtes3	DRSC20183		4.03e5	3.43e5	inactive
sigmar	DRSC04449		82677	61943	inactive
CG13069	DRSC09952		54657	48860	inactive
ct	DRSC18757		18860	19940	inactive
CG14455	DRSC11712		64127	52107	inactive
ECSIT	DRSC12348		54483	56547	inactive
tbc	DRSC20540		2.49e5	2.70e5	inactive
CG18577	DRSC15352		50880	47940	inactive
drl	DRSC03523		94267	64490	inactive
CG7133	DRSC11798		25857	25180	inactive
Porin2	DRSC02584		42613	63117	inactive
Vps50	DRSC06910		53563	52137	inactive
mus201 + Chrac-14	DRSC03568		39010	62330	inactive
mus201 + Chrac-14	DRSC03575		42343	58190	inactive
Inx6	DRSC20579		2.49e5	2.95e5	inactive
spidey	DRSC17932		38550	41910	inactive
mid	DRSC02977		29823	28927	inactive
mxc	DRSC17819		2.82e5	2.73e5	inactive
Cyp4p2	DRSC07373		55443	74773	inactive
mRpL21	DRSC11100		61197	63073	inactive
bgcn	DRSC04062		64823	59030	inactive
bgcn	DRSC04063		39023	45383	inactive
CG6006	DRSC13137		1.63e5	1.54e5	inactive
CG6006	DRSC15946		47420	42393	inactive
CG11360	DRSC17124		2.30e5	2.25e5	inactive
CG11360	DRSC17134		56850	52410	inactive
Rnmt	DRSC03558		75360	71787	inactive
CG33263	DRSC10108		56697	74163	inactive
Ccp84Af	DRSC12591		47880	68370	inactive
Mtr4	DRSC03560		81340	60797	inactive
QIL1	DRSC10888		69617	59030	inactive
ppk26	DRSC10991		75387	88637	inactive
Ggamma1	DRSC07435		66810	68700	inactive
CG17777	DRSC18137		52550	94180	inactive
Send2	DRSC01906		75817	81087	inactive
cort	DRSC02148		1.60e5	1.74e5	inactive
Ir60d	DRSC04218		49333	60657	inactive
CG4882	DRSC04495		58493	51060	inactive
Arglu1	DRSC02909		31340	36237	inactive
CG9436	DRSC05005		70157	69453	inactive
CG12253	DRSC02153		81013	56397	inactive
CG14947	DRSC02429		66137	61547	inactive
Mulk	DRSC02658		82183	60763	inactive
CG6497	DRSC10654		37940	30397	inactive
Sbp2	DRSC10766		30960	35640	inactive
CG34384	DRSC12644		58297	81803	inactive
CG34384	DRSC14855		66937	72533	inactive
CG34384	DRSC15444		54083	62930	inactive
CG34384	DRSC16575		46093	67977	inactive
Dscam2	DRSC08869		1.91e5	1.72e5	inactive
Dscam2	DRSC10198		65710	87163	inactive
Dscam2	DRSC11018		59090	81417	inactive
Dscam2	DRSC11019		58250	73097	inactive
MED18	DRSC18549		48210	47660	inactive
Nt5b	DRSC19977		3.63e5	3.16e5	inactive
Nt5b	DRSC19978		3.97e5	3.55e5	inactive
CG7071 + Muted	DRSC16189		61350	46670	inactive
CCAP-R	DRSC14891	at least 2 SD above plate mean	1.06e5	93550	inactive
CCAP-R	DRSC15967		91940	80040	inactive
CG33267	DRSC09120		1.90e5	1.85e5	inactive
mor	DRSC15378		70300	71430	inactive
RanBP3	DRSC14217		31183	51410	inactive
Tep2	DRSC02679		18597	24317	inactive
Tep2	DRSC03451		21053	18640	inactive
PolD1	DRSC11138		92237	86633	inactive
CG34382	DRSC08999		1.32e5	1.72e5	inactive
CG34382	DRSC10166		62287	63933	inactive
CG34382	DRSC10167		66893	74880	inactive
CG5614	DRSC15845		1.10e5	56100	inactive
MTA1-like	DRSC12382		52023	41807	inactive
CG7264	DRSC10793		82310	80593	inactive
Yp3	DRSC20302		2.26e5	2.73e5	inactive
CG6191	DRSC05938		44033	52883	inactive
cold	DRSC00538		1.17e5	66240	inactive
Arp2	DRSC19332		3.13e5	2.58e5	inactive
Mct1	DRSC18681		47700	65360	inactive
Nopp140	DRSC11872		62180	59193	inactive
Trf4-1	DRSC17775		44010	41010	inactive
CG8838	DRSC00712		98647	69730	inactive
glob3	DRSC12261		55880	51310	inactive
bora	DRSC10744		39123	39460	inactive
Bruce	DRSC16015		69570	45280	inactive
P5CDh1	DRSC11801		23083	23707	inactive
ND-24L	DRSC10650		35323	29257	inactive
Ance	DRSC01865		93213	60437	inactive
Asph	DRSC07171		49423	69343	inactive
ppk15	DRSC14733		52030	56710	inactive
E(var)3-9	DRSC14451		63683	62107	inactive
CG12375	DRSC02163		99483	71393	inactive
CG33299	DRSC01085		2.55e5	2.53e5	inactive
tplus3a + tplus3b	DRSC03687		59327	54853	inactive
CG14135	DRSC10140		80423	54577	inactive
rst	DRSC17243		2.02e5	1.97e5	inactive
rst	DRSC18828		54910	58780	inactive
CtsL4	DRSC02849		48830	81287	inactive
tomboy20	DRSC14913		60347	69040	inactive

In a second layout: 12 of the entries above.
predicted target | amplicon | SD above plate mean | raw ATP luminescence, replicate 1 | raw ATP luminescence, replicate 2 | outcome
tbc | DRSC20540 | – | 2.49e5 | 2.70e5 | inactive
CG18577 | DRSC15352 | – | 50880 | 47940 | inactive
drl | DRSC03523 | – | 94267 | 64490 | inactive
CG7133 | DRSC11798 | – | 25857 | 25180 | inactive
Porin2 | DRSC02584 | – | 42613 | 63117 | inactive
Vps50 | DRSC06910 | – | 53563 | 52137 | inactive
mus201 + Chrac-14 | DRSC03568 | – | 39010 | 62330 | inactive
mus201 + Chrac-14 | DRSC03575 | – | 42343 | 58190 | inactive
Inx6 | DRSC20579 | – | 2.49e5 | 2.95e5 | inactive
spidey | DRSC17932 | – | 38550 | 41910 | inactive
mid | DRSC02977 | – | 29823 | 28927 | inactive
mxc | DRSC17819 | – | 2.82e5 | 2.73e5 | inactive
